Source: patent publication US9833466B2, “Treatment of leukemia with histone deacetylase inhibitors” (Acetylon Pharmaceuticals Inc., priority 2014, dated 2017)
The name of at least one read-out is uncertain.

Tested on: bone marrow samples derived from AML patients
Assay: Primary AML sample colony formation assay
Type: cell-based, human
Procedure: (A) 6 bone marrow samples derived from AML patients were cultured in methylcellulose-based medium and treated with increasing concentrations of Compound A, Compound J and azacitidine for 14 days when the colonies reach reasonable size. IC50 values for each drug are plotted. […] IC50 values were plotted for each patient sample.

In the case of `Nc1ccc(-c2cccs2)cc1NC(=O)c1ccc2nc(N3CCNCC3)ccc2c1` [Compound J, N-(2-amino-5-(thiophen-2-yl)phenyl)-2-(piperazin-1-yl)quinoline-6-carboxamide], the “effect on azacitidine IC50, colony formation” value (“effect on azacitidine IC50” below) (sample 103113SH, Compound J at 3 uM) is reported as “reduced azacitidine IC50”, the “effect on azacitidine IC50” value (sample 4031113SH, Compound J at 1 or 3 uM, Compound A at 1, 3 or 10 uM added to azacitidine) is reported as “decreased azacitidine IC50 value” and the “effect on azacitidine IC50” value (sample 184090514, Compound J at 3 uM, Compound A at 10 uM) is reported as “significantly reduced azacitidine IC50 value”. For the same compound, the “effect on azacitidine IC50” value (sample VMBM0007, Compound J at 1 or 3 uM, Compound A at 1, 3 or 10 uM added to azacitidine) was “decreased azacitidine IC50 value”.
